Assay results as given in publication PMC9027123.
These are yes or no findings as the source states them, for the method shown. In cells and extracts the contact can be indirect. Some results given as binding are weak or reduced against the parent protein; the word gives no strength.

Amino acid sequences for entries named in this document (tags omitted).
UniProt Q3TKT4: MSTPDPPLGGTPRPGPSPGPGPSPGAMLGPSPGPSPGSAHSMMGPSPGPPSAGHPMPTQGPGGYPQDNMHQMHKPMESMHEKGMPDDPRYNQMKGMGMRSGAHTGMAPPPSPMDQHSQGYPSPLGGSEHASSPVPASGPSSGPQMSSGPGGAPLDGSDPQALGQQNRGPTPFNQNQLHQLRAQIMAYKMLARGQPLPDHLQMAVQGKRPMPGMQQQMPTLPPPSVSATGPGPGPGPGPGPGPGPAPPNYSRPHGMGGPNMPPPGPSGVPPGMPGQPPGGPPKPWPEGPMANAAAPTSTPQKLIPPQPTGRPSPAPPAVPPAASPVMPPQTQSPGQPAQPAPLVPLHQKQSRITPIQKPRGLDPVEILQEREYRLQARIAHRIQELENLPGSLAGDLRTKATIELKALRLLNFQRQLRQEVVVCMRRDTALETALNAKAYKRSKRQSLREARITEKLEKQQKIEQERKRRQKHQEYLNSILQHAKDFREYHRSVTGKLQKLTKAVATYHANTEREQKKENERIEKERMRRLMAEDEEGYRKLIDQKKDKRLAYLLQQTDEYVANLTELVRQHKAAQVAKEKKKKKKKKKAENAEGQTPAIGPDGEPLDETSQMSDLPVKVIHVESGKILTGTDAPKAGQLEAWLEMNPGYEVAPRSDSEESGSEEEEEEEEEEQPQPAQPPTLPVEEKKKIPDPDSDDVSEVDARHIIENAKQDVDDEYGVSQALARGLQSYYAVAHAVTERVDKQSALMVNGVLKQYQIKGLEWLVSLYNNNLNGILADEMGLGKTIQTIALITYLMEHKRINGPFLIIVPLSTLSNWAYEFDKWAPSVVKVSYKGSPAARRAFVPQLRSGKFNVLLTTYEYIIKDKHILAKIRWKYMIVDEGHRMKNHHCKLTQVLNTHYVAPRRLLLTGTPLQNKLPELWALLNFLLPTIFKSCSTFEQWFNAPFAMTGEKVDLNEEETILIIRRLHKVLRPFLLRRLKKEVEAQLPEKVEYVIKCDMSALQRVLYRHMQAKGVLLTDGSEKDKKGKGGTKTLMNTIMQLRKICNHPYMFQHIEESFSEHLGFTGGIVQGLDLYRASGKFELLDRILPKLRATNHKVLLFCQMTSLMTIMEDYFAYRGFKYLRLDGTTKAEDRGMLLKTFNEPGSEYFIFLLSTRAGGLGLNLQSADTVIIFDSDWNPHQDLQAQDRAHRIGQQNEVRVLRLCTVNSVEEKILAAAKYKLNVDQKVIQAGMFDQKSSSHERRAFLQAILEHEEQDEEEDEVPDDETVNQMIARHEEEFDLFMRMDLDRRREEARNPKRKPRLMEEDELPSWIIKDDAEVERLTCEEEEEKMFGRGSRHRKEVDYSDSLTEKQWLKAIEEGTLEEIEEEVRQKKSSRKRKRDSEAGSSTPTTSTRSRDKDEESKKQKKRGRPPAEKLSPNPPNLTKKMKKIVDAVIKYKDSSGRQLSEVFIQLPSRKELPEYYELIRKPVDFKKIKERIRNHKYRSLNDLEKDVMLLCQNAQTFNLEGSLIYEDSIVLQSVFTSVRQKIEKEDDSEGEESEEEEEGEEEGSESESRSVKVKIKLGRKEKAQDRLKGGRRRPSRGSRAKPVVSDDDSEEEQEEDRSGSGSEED
UniProt P97496: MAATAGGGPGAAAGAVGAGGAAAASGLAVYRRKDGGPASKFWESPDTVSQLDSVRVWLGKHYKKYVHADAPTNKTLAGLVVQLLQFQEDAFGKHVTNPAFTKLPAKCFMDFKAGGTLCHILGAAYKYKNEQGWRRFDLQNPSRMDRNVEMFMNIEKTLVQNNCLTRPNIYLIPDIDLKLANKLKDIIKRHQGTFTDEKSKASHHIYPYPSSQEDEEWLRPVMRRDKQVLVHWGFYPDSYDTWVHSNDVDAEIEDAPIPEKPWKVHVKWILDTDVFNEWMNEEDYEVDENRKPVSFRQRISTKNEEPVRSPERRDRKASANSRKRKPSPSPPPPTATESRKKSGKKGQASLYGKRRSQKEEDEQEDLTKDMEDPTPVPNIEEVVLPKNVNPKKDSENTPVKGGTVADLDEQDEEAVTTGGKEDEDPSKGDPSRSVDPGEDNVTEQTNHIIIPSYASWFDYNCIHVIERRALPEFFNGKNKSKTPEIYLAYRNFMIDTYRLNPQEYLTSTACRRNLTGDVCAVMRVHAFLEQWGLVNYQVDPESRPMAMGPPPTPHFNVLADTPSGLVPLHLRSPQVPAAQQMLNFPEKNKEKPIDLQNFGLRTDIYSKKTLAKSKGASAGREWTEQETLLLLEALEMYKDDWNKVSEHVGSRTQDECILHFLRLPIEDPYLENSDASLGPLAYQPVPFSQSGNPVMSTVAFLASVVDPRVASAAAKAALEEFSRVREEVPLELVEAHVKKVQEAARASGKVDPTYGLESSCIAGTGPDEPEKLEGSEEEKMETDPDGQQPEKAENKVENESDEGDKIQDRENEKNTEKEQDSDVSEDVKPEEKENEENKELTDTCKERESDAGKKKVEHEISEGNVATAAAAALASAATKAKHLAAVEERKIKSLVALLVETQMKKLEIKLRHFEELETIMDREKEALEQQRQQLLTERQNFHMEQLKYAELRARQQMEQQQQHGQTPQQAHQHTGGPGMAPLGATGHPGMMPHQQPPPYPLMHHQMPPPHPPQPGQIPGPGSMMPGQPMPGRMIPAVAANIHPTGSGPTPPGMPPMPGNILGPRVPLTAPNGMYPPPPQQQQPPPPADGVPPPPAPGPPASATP

Molecular target: Smarca4 (mouse (endogenous in 81K1 ESC)) (UniProt Q3TKT4)
Assay: co-IP; anti-Brg1 (H-88) or anti-Baf155 (R18) coupled to A/G PLUS agarose beads; 1 mg lysate of 81K1 ESC in GENNT buffer (5% glycerol, 5 mM EDTA, 0.2% NP-40, 150 mM NaCl, 50 mM Tris-HCl pH 8.0), 4 °C overnight; cells untreated or treated with doxycycline for three days (Smarcb1 knockdown); Western blot

With Smarcc1 (from UniProt P97496 1-1104) the binding was “binds”.
